Measurements as given in the supplement of paper PMC12067093, “Discovery and optimisation of a covalent ligand for TRIM25 and its application to targeted protein ubiquitination” (Chemical Science, 2025).
This is one part of the list.

By UniProt entry, the sequences of proteins in these tests, tags left out. Where a name states a change or a piece, a line headed by the entry shows the natural chain unless it says otherwise.
UniProt Q9NYV6: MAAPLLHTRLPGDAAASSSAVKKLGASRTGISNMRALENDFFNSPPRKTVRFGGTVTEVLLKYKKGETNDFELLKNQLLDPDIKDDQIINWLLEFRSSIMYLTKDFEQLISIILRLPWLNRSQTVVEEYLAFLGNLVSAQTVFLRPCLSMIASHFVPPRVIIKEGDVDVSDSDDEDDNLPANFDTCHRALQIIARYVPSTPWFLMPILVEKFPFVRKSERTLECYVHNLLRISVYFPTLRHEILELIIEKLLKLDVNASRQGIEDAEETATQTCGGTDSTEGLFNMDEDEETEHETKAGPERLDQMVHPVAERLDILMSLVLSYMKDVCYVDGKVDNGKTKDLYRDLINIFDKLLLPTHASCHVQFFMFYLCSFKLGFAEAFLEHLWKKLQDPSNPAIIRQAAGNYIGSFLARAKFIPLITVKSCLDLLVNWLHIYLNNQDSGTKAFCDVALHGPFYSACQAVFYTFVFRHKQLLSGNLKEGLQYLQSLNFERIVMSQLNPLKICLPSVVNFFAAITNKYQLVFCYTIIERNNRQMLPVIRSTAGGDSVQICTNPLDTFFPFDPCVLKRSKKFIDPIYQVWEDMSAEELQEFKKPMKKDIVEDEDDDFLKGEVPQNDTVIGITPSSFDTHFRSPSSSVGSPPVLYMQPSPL
UniProt Q9NQG5: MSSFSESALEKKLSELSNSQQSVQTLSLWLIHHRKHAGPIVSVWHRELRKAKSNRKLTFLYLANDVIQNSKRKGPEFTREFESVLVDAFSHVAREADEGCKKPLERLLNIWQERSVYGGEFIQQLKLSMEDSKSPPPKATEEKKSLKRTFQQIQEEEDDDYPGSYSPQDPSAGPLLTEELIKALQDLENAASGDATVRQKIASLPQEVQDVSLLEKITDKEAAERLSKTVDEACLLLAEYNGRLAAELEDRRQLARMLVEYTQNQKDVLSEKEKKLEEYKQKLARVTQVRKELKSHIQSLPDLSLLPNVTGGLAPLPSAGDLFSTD
UniProt Q9Y3I0: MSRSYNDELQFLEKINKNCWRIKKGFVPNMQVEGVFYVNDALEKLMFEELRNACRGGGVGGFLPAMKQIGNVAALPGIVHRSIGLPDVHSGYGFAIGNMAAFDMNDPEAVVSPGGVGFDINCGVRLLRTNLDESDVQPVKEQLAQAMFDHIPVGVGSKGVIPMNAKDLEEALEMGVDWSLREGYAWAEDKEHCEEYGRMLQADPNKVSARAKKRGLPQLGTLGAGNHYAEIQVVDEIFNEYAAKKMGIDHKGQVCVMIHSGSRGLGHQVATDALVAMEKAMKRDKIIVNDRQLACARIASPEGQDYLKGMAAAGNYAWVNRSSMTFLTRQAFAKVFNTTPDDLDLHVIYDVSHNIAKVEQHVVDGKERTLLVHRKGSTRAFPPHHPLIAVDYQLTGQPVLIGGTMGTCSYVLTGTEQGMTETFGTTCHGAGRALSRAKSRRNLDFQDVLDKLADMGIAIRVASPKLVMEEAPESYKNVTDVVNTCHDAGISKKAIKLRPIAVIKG
UniProt P23443: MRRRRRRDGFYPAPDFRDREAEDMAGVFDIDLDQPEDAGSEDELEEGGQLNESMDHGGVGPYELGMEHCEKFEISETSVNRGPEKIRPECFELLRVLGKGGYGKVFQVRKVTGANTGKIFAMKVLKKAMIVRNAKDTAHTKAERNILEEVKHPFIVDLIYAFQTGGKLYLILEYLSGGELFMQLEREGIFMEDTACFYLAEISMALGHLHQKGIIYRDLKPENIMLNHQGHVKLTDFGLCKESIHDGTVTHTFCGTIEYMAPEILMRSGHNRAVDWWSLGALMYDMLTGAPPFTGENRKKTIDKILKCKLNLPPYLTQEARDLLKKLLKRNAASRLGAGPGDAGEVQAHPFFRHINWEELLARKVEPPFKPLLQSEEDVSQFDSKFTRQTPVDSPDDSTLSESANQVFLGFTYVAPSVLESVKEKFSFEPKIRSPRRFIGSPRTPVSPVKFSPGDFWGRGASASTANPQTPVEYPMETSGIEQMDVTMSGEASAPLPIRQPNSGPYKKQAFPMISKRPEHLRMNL
UniProt Q9NZJ4: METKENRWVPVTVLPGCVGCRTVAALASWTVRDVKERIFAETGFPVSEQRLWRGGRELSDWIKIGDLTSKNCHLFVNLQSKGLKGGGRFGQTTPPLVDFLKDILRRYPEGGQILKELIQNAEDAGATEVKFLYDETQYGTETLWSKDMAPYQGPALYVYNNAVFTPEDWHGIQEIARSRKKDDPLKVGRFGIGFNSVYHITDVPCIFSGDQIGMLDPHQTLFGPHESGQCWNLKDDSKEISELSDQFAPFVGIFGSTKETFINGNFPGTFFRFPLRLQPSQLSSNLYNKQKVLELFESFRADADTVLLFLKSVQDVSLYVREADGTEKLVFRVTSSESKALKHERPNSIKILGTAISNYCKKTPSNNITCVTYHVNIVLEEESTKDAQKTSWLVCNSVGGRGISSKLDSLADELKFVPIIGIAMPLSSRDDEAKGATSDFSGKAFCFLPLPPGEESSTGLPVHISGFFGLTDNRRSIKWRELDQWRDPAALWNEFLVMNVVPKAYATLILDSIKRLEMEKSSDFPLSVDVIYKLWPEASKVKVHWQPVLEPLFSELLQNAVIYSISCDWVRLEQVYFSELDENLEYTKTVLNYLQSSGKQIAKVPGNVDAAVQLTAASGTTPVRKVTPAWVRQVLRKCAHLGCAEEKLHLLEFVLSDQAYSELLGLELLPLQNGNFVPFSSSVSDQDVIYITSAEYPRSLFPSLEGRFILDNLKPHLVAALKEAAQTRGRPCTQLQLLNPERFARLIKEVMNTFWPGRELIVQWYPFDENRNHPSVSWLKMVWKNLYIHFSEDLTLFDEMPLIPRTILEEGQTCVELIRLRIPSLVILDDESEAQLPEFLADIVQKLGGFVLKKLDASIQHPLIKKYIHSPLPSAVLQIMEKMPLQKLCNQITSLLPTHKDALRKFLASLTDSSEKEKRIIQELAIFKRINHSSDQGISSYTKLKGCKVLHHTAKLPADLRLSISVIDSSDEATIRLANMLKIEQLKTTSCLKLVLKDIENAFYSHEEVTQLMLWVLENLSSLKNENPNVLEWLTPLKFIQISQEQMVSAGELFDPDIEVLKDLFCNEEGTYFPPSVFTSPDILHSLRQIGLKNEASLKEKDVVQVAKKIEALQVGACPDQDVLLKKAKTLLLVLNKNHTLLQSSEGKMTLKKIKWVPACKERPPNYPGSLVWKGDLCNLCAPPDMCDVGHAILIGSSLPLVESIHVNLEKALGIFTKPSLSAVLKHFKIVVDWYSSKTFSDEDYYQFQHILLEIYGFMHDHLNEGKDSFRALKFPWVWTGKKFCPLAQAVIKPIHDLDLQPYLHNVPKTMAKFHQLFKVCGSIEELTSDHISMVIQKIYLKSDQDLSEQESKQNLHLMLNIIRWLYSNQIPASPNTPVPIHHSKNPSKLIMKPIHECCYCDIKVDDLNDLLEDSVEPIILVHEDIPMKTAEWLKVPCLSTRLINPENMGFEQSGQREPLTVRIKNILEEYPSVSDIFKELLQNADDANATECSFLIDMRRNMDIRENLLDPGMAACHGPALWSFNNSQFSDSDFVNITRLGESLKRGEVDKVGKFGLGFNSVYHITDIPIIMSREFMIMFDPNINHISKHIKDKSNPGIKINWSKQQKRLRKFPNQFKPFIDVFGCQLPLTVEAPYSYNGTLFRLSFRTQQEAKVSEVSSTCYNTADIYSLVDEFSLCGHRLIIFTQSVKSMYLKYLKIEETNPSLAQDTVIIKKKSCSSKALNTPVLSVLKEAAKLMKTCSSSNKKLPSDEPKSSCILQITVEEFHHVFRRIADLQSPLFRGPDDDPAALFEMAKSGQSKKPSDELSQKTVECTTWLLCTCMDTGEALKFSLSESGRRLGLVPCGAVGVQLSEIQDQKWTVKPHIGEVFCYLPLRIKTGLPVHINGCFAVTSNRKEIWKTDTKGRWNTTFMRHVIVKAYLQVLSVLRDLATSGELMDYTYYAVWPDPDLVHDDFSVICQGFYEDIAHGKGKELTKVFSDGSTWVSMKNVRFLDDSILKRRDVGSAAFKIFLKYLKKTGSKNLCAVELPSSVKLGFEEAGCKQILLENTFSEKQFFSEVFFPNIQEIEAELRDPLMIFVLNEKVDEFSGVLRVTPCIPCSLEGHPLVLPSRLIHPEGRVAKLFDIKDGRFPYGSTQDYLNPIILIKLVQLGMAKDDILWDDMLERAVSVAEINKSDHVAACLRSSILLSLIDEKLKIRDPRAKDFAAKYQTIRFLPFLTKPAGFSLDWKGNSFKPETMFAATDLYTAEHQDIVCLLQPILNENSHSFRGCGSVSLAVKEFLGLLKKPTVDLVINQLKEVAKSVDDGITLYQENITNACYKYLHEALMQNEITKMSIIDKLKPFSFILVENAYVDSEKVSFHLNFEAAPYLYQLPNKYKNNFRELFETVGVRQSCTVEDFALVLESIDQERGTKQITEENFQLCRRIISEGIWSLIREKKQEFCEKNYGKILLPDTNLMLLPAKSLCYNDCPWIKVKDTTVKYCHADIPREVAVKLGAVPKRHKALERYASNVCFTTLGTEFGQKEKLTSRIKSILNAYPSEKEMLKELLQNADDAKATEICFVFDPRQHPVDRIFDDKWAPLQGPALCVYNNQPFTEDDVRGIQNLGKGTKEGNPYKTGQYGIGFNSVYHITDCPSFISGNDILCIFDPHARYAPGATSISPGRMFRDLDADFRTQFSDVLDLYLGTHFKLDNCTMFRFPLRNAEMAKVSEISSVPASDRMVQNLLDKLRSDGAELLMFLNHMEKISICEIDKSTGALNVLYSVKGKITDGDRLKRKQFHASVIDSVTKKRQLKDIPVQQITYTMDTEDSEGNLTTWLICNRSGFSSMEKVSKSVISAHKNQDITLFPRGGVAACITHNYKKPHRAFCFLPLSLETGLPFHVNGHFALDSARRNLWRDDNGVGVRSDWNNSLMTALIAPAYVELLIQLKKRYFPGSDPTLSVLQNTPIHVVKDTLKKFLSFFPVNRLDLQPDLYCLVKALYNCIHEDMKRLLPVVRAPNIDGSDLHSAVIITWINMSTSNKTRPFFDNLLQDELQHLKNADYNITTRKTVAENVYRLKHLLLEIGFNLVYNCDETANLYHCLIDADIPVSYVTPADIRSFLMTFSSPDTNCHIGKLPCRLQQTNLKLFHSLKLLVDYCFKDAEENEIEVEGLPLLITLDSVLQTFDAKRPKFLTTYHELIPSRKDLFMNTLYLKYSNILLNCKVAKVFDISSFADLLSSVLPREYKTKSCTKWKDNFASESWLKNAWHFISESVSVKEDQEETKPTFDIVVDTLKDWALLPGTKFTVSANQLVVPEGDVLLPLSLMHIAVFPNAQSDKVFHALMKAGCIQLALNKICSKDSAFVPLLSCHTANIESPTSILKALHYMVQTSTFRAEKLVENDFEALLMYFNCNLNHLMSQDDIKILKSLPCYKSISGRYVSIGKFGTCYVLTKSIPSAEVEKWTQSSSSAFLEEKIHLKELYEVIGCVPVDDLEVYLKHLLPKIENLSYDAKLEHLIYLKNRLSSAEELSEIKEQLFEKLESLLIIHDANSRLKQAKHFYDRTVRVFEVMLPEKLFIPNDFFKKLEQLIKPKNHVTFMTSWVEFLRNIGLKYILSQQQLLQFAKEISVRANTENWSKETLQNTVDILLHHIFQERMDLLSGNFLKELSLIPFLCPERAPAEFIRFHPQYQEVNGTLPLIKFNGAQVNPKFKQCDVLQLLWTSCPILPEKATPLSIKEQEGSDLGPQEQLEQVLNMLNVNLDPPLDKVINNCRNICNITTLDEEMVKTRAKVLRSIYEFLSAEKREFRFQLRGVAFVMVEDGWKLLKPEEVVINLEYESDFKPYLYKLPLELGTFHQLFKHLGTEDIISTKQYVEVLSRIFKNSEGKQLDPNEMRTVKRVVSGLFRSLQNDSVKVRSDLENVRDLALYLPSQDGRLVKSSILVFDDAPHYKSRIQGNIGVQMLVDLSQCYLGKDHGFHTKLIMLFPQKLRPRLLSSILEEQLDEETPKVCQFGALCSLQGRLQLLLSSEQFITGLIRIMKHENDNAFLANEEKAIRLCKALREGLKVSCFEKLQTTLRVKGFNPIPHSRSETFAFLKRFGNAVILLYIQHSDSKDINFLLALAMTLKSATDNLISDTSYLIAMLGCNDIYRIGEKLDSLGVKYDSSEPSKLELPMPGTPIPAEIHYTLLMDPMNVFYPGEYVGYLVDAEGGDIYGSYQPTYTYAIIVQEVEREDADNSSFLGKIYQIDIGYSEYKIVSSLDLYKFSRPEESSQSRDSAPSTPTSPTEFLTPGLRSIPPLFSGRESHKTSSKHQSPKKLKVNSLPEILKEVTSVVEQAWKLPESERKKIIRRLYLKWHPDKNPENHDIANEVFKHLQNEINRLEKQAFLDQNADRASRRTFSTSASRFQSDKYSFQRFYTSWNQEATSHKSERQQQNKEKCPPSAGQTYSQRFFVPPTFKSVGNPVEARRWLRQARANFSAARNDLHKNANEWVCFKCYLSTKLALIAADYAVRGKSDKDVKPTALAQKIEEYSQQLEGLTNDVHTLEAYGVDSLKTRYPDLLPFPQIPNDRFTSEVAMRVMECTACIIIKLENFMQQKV

What follows are targets tested with CC1Cc2ccccc2N1C(=O)C1CCCN(C1)C(=O)CCl (mixture of isomers) [TRIM25 ligand 11 (diastereomer mixture)] (assay: probe-labelled cysteine peptide fold change vs DMSO (competition) (log2 fold change); higher = less target engagement (more negative = stronger competition)). Settings: 50 µM; THP-1; incubation time: 4 h.
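Further: competitive chemoproteomic profiling in live THP-1 cells with an iodoacetamide desthiobiotin (IA-DTB) probe, comparing probe-labelled peptide intensities in compound-treated cells against DMSO-treated controls.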

Target | probe-labelled cysteine peptide fold change
RRN3_Q9NYV6_329_DVCYVDGK (UniProt Q9NYV6) | 0.0406
RPRD1B_Q9NQG5_100_EADEGCK (UniProt Q9NQG5) | 0.0828
RPTOR_Q8N122_1168+1174_VQDIPTGADSCVTSLSCDSHR (UniProt Q8N122) | 0.059
SAMD9L_Q8IVG5_1085_RFPQNAFICQALAR (UniProt Q8IVG5) | 0.149
RPS5_P46782_66_KAQCPIVER (UniProt P46782) | -0.0951
RPS14_P62263_31_EKKEEQVISLGPQVAEGENVFGVCHIFASFNDTFVHVTDLSGK (UniProt P62263) | -0.287
RTCB_Q9Y3I0_485_NVTDVVNTCHDAGISKK (UniProt Q9Y3I0) | -0.261
SAE1_Q9UBE0_130+134_KPESFFTQFDAVCLTCCSR (UniProt Q9UBE0) | 0.0845
RRP8_O43159_332_NPVHCFDLASLDPR (UniProt O43159) | 0.0527
RTRAF_Q9Y224_19_LTALDYHNPAGFNCK (UniProt Q9Y224) | 0.404
RYBP_Q8N488_44_CSICDVR (UniProt Q8N488) | 0.0715
RPS6KB1_P23443_254_ESIHDGTVTHTFCGTIEYMAPEILMR (UniProt P23443) | -0.158
RPS12_P25398_50_RQAHLCVLASNCDEPMYVK (UniProt P25398) | -0.00785
RTCA_O00442_28_VSTALSCLLGLPLR (UniProt O00442) | -0.0865
S100A6_P06703_3_ACPLDQAIGLLVAIFHK (UniProt P06703) | -0.296
RPS11_P62280_131_DVQIGDIVTVGECR (UniProt P62280) | 0.0835
RTCB_Q9Y3I0_193_EHCEEYGR (UniProt Q9Y3I0) | -0.0373
RUFY1_Q96T51_692_VCDSCHTLLLQR (UniProt Q96T51) | -0.0564
RPS20_P60866_70_KTPCGEGSK (UniProt P60866) | -0.055
RRP12_Q5JTH9_261_AAQHGVCSVLK (UniProt Q5JTH9) | -0.234

Target | probe-labelled cysteine peptide fold change
RTFDC1_Q9BY42_3_GCDGGTIPK (UniProt Q9BY42) | -0.16
RREB1_Q92766-2_1302_HGVTTCSLR (UniProt Q92766) | -0.172
RTN3_O95197-3_46_SCSSSCAVHDLIFWR (UniProt O95197) | -0.919
RUVBL2_Q9Y230_413_YAIQLITAASLVCR (UniProt Q9Y230) | -0.00307
RPS6KB1_P23443_90_IRPECFELLR (UniProt P23443) | -0.166
RUNX3_Q13761_22_RFTPPSPAFPCGGGGGK (UniProt Q13761) | -0.279
RPS15A_P62244_72_CGVISPR (UniProt P62244) | -0.0605
SAAL1_Q96ER3_248_LVPCILEAAK (UniProt Q96ER3) | -0.0454
RPS15A_P62244_30_QVLIRPCSK (UniProt P62244) | 0.244
RPS6KA5_O75582_731_YKREGFCLQNVDKAPLAK (UniProt O75582) | 0.242
RPUSD2_Q8IZ73_344_GKPCETVFQR (UniProt Q8IZ73) | 0.0381
S100A4_P26447_3_ACPLEK (UniProt P26447) | -0.151
SACS_Q9NZJ4_1160_WVPACK (UniProt Q9NZJ4) | 0.132
SACS_Q9NZJ4_1846_LGLVPCGAVGVQLSEIQDQK (UniProt Q9NZJ4) | -0.0784
RRBP1_Q9P2E9_1128_LREAEETQSTLQAECDQYR (UniProt Q9P2E9) | -0.138
RPS12_P25398_92_LGEWVGLCK (UniProt P25398) | -0.0304
RPP38_P78345_176_CVLALAFKK (UniProt P78345) | -0.198
SAC3D1_A6NKF1_340_DLCQAHGLPLDGEER (UniProt A6NKF1) | 0.148
RREB1_Q92766_291_DAMGRPFIQNNPSIPAGFHDLGFTDFSCR (UniProt Q92766) | -0.0626
